From article PMC2834713
Results are given in words; binding and its absence hold for the method and conditions named. Binding seen in cells or lysates may run through a third protein. Some entries that bind do so weakly or less than the wild type. Sequences can lack the tags named with a protein.

T1: C. albicans Ifh1-Myc (C. albicans) (UniProt Q5AG97)
T1 sequence: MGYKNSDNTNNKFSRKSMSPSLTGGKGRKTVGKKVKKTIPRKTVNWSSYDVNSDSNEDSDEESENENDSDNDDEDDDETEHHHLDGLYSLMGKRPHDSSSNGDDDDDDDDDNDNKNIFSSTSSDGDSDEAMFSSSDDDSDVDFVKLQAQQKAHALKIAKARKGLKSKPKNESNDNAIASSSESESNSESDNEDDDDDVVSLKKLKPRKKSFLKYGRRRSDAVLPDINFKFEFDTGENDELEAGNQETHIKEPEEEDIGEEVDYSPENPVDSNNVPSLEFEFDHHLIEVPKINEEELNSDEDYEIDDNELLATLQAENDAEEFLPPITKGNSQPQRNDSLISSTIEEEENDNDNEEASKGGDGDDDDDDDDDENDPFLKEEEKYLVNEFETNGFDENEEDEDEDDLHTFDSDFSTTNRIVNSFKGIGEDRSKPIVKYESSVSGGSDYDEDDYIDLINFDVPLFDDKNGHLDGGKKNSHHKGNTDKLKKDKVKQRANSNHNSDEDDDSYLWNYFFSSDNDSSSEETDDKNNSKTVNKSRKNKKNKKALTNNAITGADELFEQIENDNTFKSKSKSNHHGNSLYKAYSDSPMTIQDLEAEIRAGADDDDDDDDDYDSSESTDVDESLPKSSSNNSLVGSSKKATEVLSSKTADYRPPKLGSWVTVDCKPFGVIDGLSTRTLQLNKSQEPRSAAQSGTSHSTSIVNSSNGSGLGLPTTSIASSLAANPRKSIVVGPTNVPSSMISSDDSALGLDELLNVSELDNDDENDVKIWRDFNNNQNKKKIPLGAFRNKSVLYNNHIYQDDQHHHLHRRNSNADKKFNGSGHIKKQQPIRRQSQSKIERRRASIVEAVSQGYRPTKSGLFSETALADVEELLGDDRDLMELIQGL

T2: S. cerevisiae Ifh1-Myc (S. cerevisiae) (UniProt P39520)
T2 sequence: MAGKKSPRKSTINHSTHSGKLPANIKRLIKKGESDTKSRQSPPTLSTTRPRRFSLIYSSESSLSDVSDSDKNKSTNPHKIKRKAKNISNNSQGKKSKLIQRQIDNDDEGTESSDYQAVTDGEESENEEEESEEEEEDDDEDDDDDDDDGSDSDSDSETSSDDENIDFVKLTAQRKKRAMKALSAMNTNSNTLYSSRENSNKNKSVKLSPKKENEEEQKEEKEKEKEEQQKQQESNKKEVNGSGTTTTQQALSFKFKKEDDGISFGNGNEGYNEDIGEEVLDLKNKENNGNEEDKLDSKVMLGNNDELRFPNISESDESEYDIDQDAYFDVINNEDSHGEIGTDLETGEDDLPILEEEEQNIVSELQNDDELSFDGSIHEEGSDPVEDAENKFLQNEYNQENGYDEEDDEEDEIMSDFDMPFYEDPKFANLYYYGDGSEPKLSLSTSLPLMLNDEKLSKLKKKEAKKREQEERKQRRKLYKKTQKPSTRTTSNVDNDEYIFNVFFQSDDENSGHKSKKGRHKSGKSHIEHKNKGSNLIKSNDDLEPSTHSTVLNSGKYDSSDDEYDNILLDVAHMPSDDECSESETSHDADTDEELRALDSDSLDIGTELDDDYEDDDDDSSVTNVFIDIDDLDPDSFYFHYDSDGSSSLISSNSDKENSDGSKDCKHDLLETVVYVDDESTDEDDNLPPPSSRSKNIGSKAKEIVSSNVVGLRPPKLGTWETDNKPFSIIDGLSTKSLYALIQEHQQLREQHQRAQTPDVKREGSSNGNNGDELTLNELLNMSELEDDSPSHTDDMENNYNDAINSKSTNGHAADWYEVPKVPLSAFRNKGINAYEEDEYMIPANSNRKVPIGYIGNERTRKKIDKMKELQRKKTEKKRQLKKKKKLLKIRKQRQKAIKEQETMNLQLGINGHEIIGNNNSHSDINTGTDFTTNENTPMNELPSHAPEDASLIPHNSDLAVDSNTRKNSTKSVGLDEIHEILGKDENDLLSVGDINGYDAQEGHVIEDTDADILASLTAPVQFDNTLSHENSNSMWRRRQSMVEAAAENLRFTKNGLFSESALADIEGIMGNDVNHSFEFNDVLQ

B1: C. albicans Fhl1-HA (protein, UniProt Q59ZC8 1-1152)
chain: MSHIDGDDHMTKDLIDSLESKDNDLSLVTSNTQIPDVEVANLTHDADEINQLFDTATNNVLPESNKKDKPIDTQDLHEDDPKAVPKTTSNGESTSNSNSVSPKLLPNDGKSTPKIQKELRRKSTFVPVTSNSKSLEPSEDDNNNNNNNSRISAYARLDFENFTFFVQTLQVVLGRKSNDETLQQNVDVHLSSKKAISRRHAKIFYNFGTQRFEISILGRNGAFVDNVFVEKGLTIPLTDGNKIQIGDIPFKFVLPSNEPNEENNNQDSSEKQFNPSDAINLRSNLYSKSSSPQSSPKRKPQPSKKVKKEPVSASNTSKDIKPTPPVPTTAISPTASISTSTNAATAATATTPATTTAARKNSINRRNSLLKIRRLSNARRKSLAANDEINELLKDLGVTSIDEINEEDSELLDAQIQSLLDEDNENLGGIEDSLMKLAEFNESAIDDDDDDEEGNENSQADLDRLEKTMEHDAIDDEIKAIDSNLTLLDDEISKLTPLINDTNQGLLEEKETKKKQLEEEKRKKQLQQLQHKNSLAKFPRRSAPLMGKPASIQPPASSSIYSRINGLDKIGKTVSPRPPPPKLIAPVLRVTAEPSAIRSRPPLRAITVSDSSYIATFSYPKTIEEPSKYPKPKVKKEHHKKHSKKVYSLDEIPEPYRSKPNISFQIMITNVLKTEAARNGLIINEITEAIKEVYPYYKYCTDGWQFSINHCIKFTKIYKRLQKRGSEWLYAMDELYINERENIRIKQREIAKAKAKAEALRQEEIRQRQRLEAQKSLPHNIVGRNFASPYANTRVPPNQYNQFSQSSSSSSSSATTTTNGQYGSTTMVGGTSPQAGSIRAQLAAVRGNGNTPATTSTTPSLPAMNDPKTKKSLEYLQKELFTLYKARKLTYDTQTATSLITKAVATTIAQVNSIGAKAGAGDNALVFLVERAPEKVSKILDIALTKSIKEHEGIASKSPSQPATPGMRPEQLTTTSQSAATPTTTPQISNLQSLPVKPPISTPLPQVPQQQVSGVNIPGPIATPNIGVTSGVGNLGTTSIGTPTPTQIQSPATSVIPAMQSPQKPVSTPIPTSVPVPLPVPSAPLARPPSFGKPPGAGSSLSRPKAFGKPPGAGSSLSRPPTFLSNKPSYKRELEDDEEEGEQATNKIAKTE
B2: S. cerevisiae Fhl1-HA (protein, UniProt P39521 1-936)
chain: MDGEMAIIESSNHVGTSSPTTETQFTIDSSALKDQETKESITNSPTSEVPIETKLPKSSDIVTEEKHPQNTTTDIENEVENPVTDDNGNLKLELPDNLDNADFSKLLEFDAKNDEALFNSNELLSHTMDPVNNIDLTHDHSREVSSKEDINIEPVNPDEDEREKTQDNTAAVKTEGIRNSEDTSIQKDEPTADAIYTDVHKLSVNKDTETLPTLVDEKNNMLHMRNNSITPIMFQQHELVGQPPQNTVTENNSTDAETTQRKLSEPIDASLPLPNEQPTIFAYARLDFQSFTFYVQTLHAIIGRRSENDFSHKVDVNLGPSKSISRRHAQIFYNFGTGRFELSIIGKNGAFVDDIFVEKGNTVPLRNKTKIQIGQIPFQFILPEQERNDDSKSPENADIAESEINTRNLKKNEPKSKKKITTGAKPKKAQTKPAVKKEKKPPKIPKKVYTLEEIPVEYRTKPTVSYSAMLTTCIRKYSTAKGMSLSEIYAGIRELFPYYKYCPDGWQSSVRHNLSLNKSFRKVSKEGKGWLWGLDEEYIAERERQKKKQSEIAVAKAQAAQLKLEQQQHKLQQVPQRGKKDIVSQRSNVNARKQNISQTLAANRAASNRKNTASDNQRTMKYLQEQLVILTRDRKGLSKQVIAAILTQALAMTINQVTQAAKNKGITGNPLTALMDKNPQHLNLILAAAVNAATAKVTKGEVKQLVNPETTAAAALAAKAQHSKPIRQPIVQTPHVPDRPPSQLSASASSHPNNYLHDKQPGSFDPSSLSRFFQPRQNARATSSVAATSVPAAASQNVDAQPKPKPAQDNDLESESGTSSSSSSSSESGSESDSGSDDGSASGSGDNSSTSSESESESDSGSEVDEKNNKNEKIDSESIKNNESKDDIPSKDENSSNDNREISKTDEEGHDSKRRKVSEDINEGITEVNVSLEEKL

Assays:
[1] = target: T1, C. albicans Ifh1-Myc (C. albicans); assay: co-IP; lysates in IP150 buffer (50 mM Tris-HCl pH 7.4, 150 mM NaCl, 2 mM MgCl2, 0.1% NP40); 1 mg total protein on anti-Myc (9E10) or anti-HA (12CA5) beads, 4°C overnight; blot with anti-Myc or anti-HA; cells also treated with rapamycin, heat shock, osmotic shock or hypoxia
[2] = target: T2, S. cerevisiae Ifh1-Myc (S. cerevisiae); assay: as above

Binder	binding [1]	binding [2]
B1	binds	–
B2	–	binds
